Source: ChEMBL document CHEMBL3988442, “University of Dundee, Small-Polar-MMV Screening Library” (2021).

Results are given as percent effect. The record does not define 0% and 100%; most values in the screen are far below 50% and negative numbers occur (in some assays of this library far below -100). The compounds are a random part of those screened. Two or more numbers in one place are separate tests of the same structure; such repeats can differ widely.

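Cell assay of Leishmania donovani living inside macrophages; the read-out is not stated. Tested at 30 µM. Direction is inferred from retests: higher values go with stronger inhibition. About 69,000 compounds were tested under these conditions; 1.5% (about 1,000) showed 50% or more at least once.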

structure | effect
CCn1nccc1CNC(=O)CCC1CCCC1 | -13.62
Cc1ccc2c(c1)c(CNC(=O)C1CCN(CC(N)=O)CC1)nn2C | 20.85
CC(C)c1nn(C)c(Cl)c1CNCc1cccnc1N(C)C.Cl | 15.28
Cc1cccc(C(C)NCC2CCS(=O)(=O)CC2)c1 (stereo not shown) | 2.804
CC(=O)c1cccc(NC(=O)N(CCO)C2CCc3ccccc32)c1 (stereo not shown) | -12.14
CCS(=O)(=O)c1ccc(NCc2csc(C(C)C)n2)cc1 | 19.3
CC(C)c1nn(C)c(N2CCOCC2)c1CNC(C)c1ccco1 (stereo not shown) | -16
O=C(NCCSc1ccccc1)[C@H]1CNC[C@H](C(=O)N2CCOCC2)C1 | 8.628
Cc1cc(C(=O)N2CCN(c3ncc4c(n3)CCOC4)CC2)sc1C | 1.505
COc1ccc(Br)c(C(=O)NCC2CCN(S(=O)(=O)C3CC3)CC2)c1 | 8.985
CCn1cc(NC(=O)C(C)n2ncc(Cl)c2C)c(C(=O)NCC(C)C)n1 (stereo not shown) | 23.51
Cc1nn(C)c(C)c1C(C)NC(=O)c1cc(CN2CCC(O)CC2)on1 (stereo not shown) | 12.77
[H][C@]12C[C@H](NC(=O)C(C)C)[C@@]1([H])CN(S(=O)(=O)c1ccc(C)cc1)C2 | -5.067
CC(c1nccs1)N(C)S(=O)(=O)NCc1ccccc1 (stereo not shown) | -8.021
Cc1ccc(C(=O)Nc2ccc(N3CCCC3)cn2)cc1F | 26.85
Cc1ccsc1CCNC(=O)C1(Oc2cccnc2C)CCNCC1 | 10.91
Cc1cnc(NCc2ccncc2)nc1-c1cnn(C)c1 | -4.376
COc1ncccc1CN1CCn2c(C(=O)N3CCCC3)cnc2C1.O=C(O)C(F)(F)F.O=C(O)C(F)(F)F | 26.88
c1ccc(Cc2noc(-c3ccc(NCC4CCCCO4)nc3)n2)cc1 (stereo not shown) | -43.33
O=C(NC1CCN(CC2CC2)C1)N1CCC(OC2CCCCC2)CC1 (stereo not shown) | 53.02
CO[C@@H]1CN(c2ccccc2)S(=O)(=O)[C@@]12CCN(CC1CC1)C2 | 8.91
O=C(c1ccco1)N1CCCC(c2cc(C(F)(F)F)[nH]n2)C1 (stereo not shown) | 17.34
CCC(=O)Nc1ccc2c(ccn2CCOC)c1 | 10.1
Cn1ccc(C(=O)NCc2ccc(N3CCOCC3)nc2)cc1=O | 18.98
CC(=O)N1CCCC1c1nccnc1NCc1cccnc1 (stereo not shown) | 14.54
O=C(NCCc1ccccc1)C1CCCN(c2ccc3nncn3n2)C1 (stereo not shown) | -28.4
Cc1cc(NCCCNc2cccnc2)n2nc(C)c(C)c2n1 | 24.71
Cc1[nH]/c(=N/C(=O)Cn2nc(N3CCOCC3)ccc2=O)sc1C | -12.83
COCCN1CCN(C(=O)N2CCCC2)Cc2ccc(C)nc21.O=C(O)C(F)(F)F | 39.68
Cc1cnn(CC2CCCN2c2nn3cc(C)nc3s2)c1 (stereo not shown) | 2.613
CCNC(=O)[C@@H]1C[C@@H](NC(=O)Cc2ccncc2)CN1Cc1ccsc1 | -23.95
O=c1c2cn[nH]c2nc(SCCN2CCCC2)n1-c1ccccc1 | 27.86
Cc1cnn(CC2CCCN2C(=O)c2nccc3ccccc23)c1 (stereo not shown) | 2.764
Cl.Cl.Cl.O[C@@H]1C[C@@](CNCc2ccccn2)(COc2cccnc2)C[C@@H]1O | 22.53
Cc1ccc(N(CC(=O)N2CCCCC2)C(=O)C2CCCO2)cc1 (stereo not shown) | 18.33
COc1cc(C(=O)N2CCC(Nc3cccnc3)CC2)ccc1C | -13.57
O=C(Nc1ncn(CC(=O)N2CCCCCC2)n1)C1CCCC1 | 29.05
CNc1cncc(C2CCCN2C(=O)c2ccc3c(c2)OCCO3)n1 (stereo not shown) | 0.8197 & 0.02244
COCC1CN(C(=O)c2cccn2C)Cc2cnn(C)c21 (stereo not shown) | 17.87 & 6.05
CN1CCC(NC(=O)NCc2csc(Br)c2)CC1 | 20.73
COCCN(Cc1ccc(F)cc1Cl)C(=O)c1cc[n+]([O-])cc1 | 34.28
CCOC(=O)CN1C(=O)CN(S(C)(=O)=O)CCC(OC)c2ccccc21 (stereo not shown) | 0.8822
CCOCC1c2c(ncn2C)CCN1C(=O)c1ccoc1 (stereo not shown) | 24.01
CN(C)CCCC(=O)NC1CC(C)(C)Cc2nc(C(C)(C)C)ncc21 (stereo not shown) | -26.32
CC(C)C(C(=O)NC1CC1)n1cnc2cc(F)c(F)cc21 (stereo not shown) | 5.499
CCn1c(C)nnc1CN(C)C1CCN(Cc2sc(C)nc2C)C1 (stereo not shown) | 0.1818
CCN1c2ccc(-c3cncn3CC(=O)NC(C)(C)C)cc2CC1C.Cl (stereo not shown) | 39.77
CN(C)Cc1ccc(C2CCCCN2C(=O)c2cc(C3CC3)n[nH]2)cc1 (stereo not shown) | -1.963
O=C(O)C(F)(F)F.O=C(c1cnccn1)N1CC2(CCN(Cc3ccsc3)C2)C1 | -0.4393
Cc1ccc(NC(=O)CN[C@H](C(N)=O)C(C)C)cc1F | 31.63
COCC1CN(C(=O)Nc2cc(C(F)(F)F)ccc2F)CCO1 (stereo not shown) | -2.704
Cc1ccc(C(C(=O)N(C)CCc2cn[nH]c2)N(C)C)cc1 (stereo not shown) | 23.34
CC(C)CN1CCc2[nH]cnc2C12CCN(C(=O)c1ccc[nH]1)CC2 | 29.66
CC(=O)N1CCN(c2ccccc2CNc2cc(F)cc(F)c2)CC1 | -2.541
CCc1csc(C2CCCN(C(=O)c3ncccn3)C2)n1 (stereo not shown) | 8.969
N#Cc1ccc(OCCCN2CCOC(Cn3cncn3)C2)cc1 (stereo not shown) | -10.29
O=C(NCCSC1CCCC1)c1c(F)cccc1F | 33.14
CC(=O)N1Cc2nccn2CC(CNC(=O)c2cccnc2)C1.O=C(O)C(F)(F)F (stereo not shown) | 16.46
CC(=O)NCc1nnc2n1CCN(c1ncnc3c(C)csc13)CC2 | 15.21
CSc1sc(NC(=O)C2CCCN(C(N)=O)C2)nc1C (stereo not shown) | 12.97
CCN(C(=O)CN1CCCC1c1ccc(OC)cc1)c1ccccc1C (stereo not shown) | 9.825
CCn1cc(CN2CCCn3nc(CNS(C)(=O)=O)cc3C2)c(C)n1 | 8.376
O=C(c1cc2cc(F)ccc2[nH]1)N1CCC(Nc2cccnn2)CC1 | 10.47
COCCN1CCC2(CC1)CC(CC(N)=O)c1ccc(F)cc12 (stereo not shown) | -8.843
O=C(O)C(F)(F)F.c1ccc(OC2COC3(CCN(Cc4ccccn4)CC3)C2)cc1 (stereo not shown) | 26.9
CCCC1(CO)CCCN(C(=O)CNC(C)=O)C1 (stereo not shown) | 12.19
Cc1ccc(C(O)CN(C)Cc2cnn(C)c2)cc1C (stereo not shown) | 6.702
O=C(O)C(F)(F)F.[H][C@@]12CCN(C3CCCC3)[C@]1([H])CC[C@H](C(=O)N1CCOCC1)O2 | 3.88
CN(C)CCOc1ccccc1N1CCN(C(=O)C(C)(C)C#N)CC1 | 24.87
CCc1nc(NCCc2c(C)nn(CC)c2C)c2cnn(C)c2n1 | -1.466
CN(Cc1ncc[nH]1)S(=O)(=O)c1cccc(C(=O)N2CCOCC2)c1 | 9.379
CCn1nc(C)c(CCNC(=O)C2CCCN(CC(N)=O)C2)c1C (stereo not shown) | 20.62
CNC(=O)[C@@H](c1ccccc1)N1CCC[C@H]1C(=O)NCc1cccnc1.Cl.Cl | -1.673
Cc1cc(F)ccc1-c1ccccc1CC1CNCCNC1=O.Cl (stereo not shown) | 37.07
CCn1ccnc1CN1CCCN(CC2CC2)C(C(C)C)C1 (stereo not shown) | 31.67
Cc1ccc(N2CCCN(C(=O)CCC3CCCO3)CC2)nn1 (stereo not shown) | 3.086
Cc1ccncc1CN1CCOCC1c1[nH]ncc1C (stereo not shown) | -17.24
O=C(c1ccc(F)cc1F)N(CC(F)(F)F)C1CCOCC1 | -7.026
O=C(c1ccc(N2CCCC2)nn1)N1CCc2ccccc21 | 21.32 & 8.389
CCN1CCN(C2CCN(Cc3nnc(C(C)C)o3)CC2)C1=O | 8.641
Cn1cc(C(=O)Nc2ccc(CC(=O)NC3CC3)cc2)nn1 | 19.01
OCC1CCCN1c1cc(N2CCN(c3ccccn3)CC2)ncn1 (stereo not shown) | 7.209
CN1CCc2nc(C3CCCCN3Cc3ccccc3Cl)ncc2C1 (stereo not shown) | 12.84
CC1CCCCN1Cc1ccc(-c2ccccc2C(=O)O)cc1 (stereo not shown) | -18.73
Cc1n[nH]c2c1C(c1ccsc1)SCC(=O)N2 (stereo not shown) | -2.482

Repeated from the top, 7 entries:

CCn1nccc1CNC(=O)CCC1CCCC1 read -13.62%.
Cc1ccc2c(c1)c(CNC(=O)C1CCN(CC(N)=O)CC1)nn2C read 20.85%.
CC(C)c1nn(C)c(Cl)c1CNCc1cccnc1N(C)C.Cl read 15.28%.
Cc1cccc(C(C)NCC2CCS(=O)(=O)CC2)c1 (stereo not shown) read 2.804%.
CC(=O)c1cccc(NC(=O)N(CCO)C2CCc3ccccc32)c1 (stereo not shown) read -12.14%.
CCS(=O)(=O)c1ccc(NCc2csc(C(C)C)n2)cc1 read 19.3%.
CC(C)c1nn(C)c(N2CCOCC2)c1CNC(C)c1ccco1 (stereo not shown) read -16%.